Measurements taken from PMC7819943, “Rice protein-binding microarrays: a tool to detect cis-acting elements near promoter regions in rice”.
The list shows a part of the results.

Molecular target: T1, OsSMF1 (Oryza sativa, UniProt Q6ZLB0 1-436)
T1 sequence: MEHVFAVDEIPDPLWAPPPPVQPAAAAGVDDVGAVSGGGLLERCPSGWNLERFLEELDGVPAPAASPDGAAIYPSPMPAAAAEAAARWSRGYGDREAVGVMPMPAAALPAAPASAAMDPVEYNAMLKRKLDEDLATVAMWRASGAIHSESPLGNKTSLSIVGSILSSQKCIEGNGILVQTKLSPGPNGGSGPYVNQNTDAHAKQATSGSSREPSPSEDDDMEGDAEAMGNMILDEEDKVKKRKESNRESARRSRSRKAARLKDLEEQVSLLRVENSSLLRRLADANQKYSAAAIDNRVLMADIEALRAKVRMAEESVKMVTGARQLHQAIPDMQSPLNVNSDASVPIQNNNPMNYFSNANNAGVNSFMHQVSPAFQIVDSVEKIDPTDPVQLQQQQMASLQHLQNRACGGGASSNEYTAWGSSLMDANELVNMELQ
Assay: protein-binding microarray (RPBM); PBS, 2% BSA, 51.3 ng/ul salmon testes DNA, 50 uM zinc acetate, 200 nM TF, 25 C, 1 h; high values mean tight binding
Conditions: protein: recombinant; tags: N-terminal polyhistidine and DsRed monomer fusion (pET32a); chain copies: 2; label: CyDye5-dUTP incorporated in the synthesized complementary strand; 3' TTTTT single-stranded linker to array surface; dsDNA, one strand shown
In short: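 In PBS with 2% BSA, salmon testes DNA and 50 µM zinc acetate, 200 nM protein was incubated on a custom Agilent array at 25 °C for 1 h and then washed off. The array had been made double-stranded by primer extension with Cy5-dUTP and blocked with 2% BSA. The proteins were transcription factors fused N-terminally to polyhistidine and DsRed, expressed in E. coli BL21-CodonPlus and purified on Ni–NTA. The binding signal is per-feature fluorescence intensity (arbitrary units) from an Axon 4000B scanner.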

| Sequence | binding signal |
| --- | --- |
| ATCAGGCACAATCACGGCGCGCCGTGGCCGAGGCATCATCCGGAGTCACCTAGTGCAG | 3620 fluorescence intensity (a.u.) |
| TATATATGCGGCACCACGCGGTCACGCACCCGCACGGGCACGGAGTCACCTAGTGCAG | 4850 fluorescence intensity (a.u.) |
| GTCATGCTTCTGCGCTGCGGTCTGCATTGTCACGACGGATCGGAGTCACCTAGTGCAG | 3940 fluorescence intensity (a.u.) |
| ACGGGGTGGCGTCACCATCGCATCTCCCAGATCCGCCTGTCGGAGTCACCTAGTGCAG | 11800 fluorescence intensity (a.u.) |
| AATGATAAATAGTGCAAGCAAAATATCAGAACCTCTTCTACGGAGTCACCTAGTGCAG | 3240 fluorescence intensity (a.u.) |
| CACCCTGGATGGGCCGGAATGTAGCATTTGCCATAGAAGGCGGAGTCACCTAGTGCAG | 24300 fluorescence intensity (a.u.) |
| GGCGCCGGCCAAATCGTACGTCACGGTCGCCTGAGCTGCGCGGAGTCACCTAGTGCAG | 6250 fluorescence intensity (a.u.) |
| AGGATTATGTTTTGTTATTAACTGTCACCACCGTTTCATACGGAGTCACCTAGTGCAG | 3180 fluorescence intensity (a.u.) |
| GCATTGTGCGTGGTCACCTTCGCAGCTGGAGAGGGAAAAGCGGAGTCACCTAGTGCAG | 3610 fluorescence intensity (a.u.) |
| CGGAATGTCTCCGCGGAAGATGCCCAAGGAATCGCCTGGCCGGAGTCACCTAGTGCAG | 39500 fluorescence intensity (a.u.) |
| TGAGGCTGACGCGTGGGCCCTCCCTCGTGTGCGTGTTCTGCGGAGTCACCTAGTGCAG | 5800 fluorescence intensity (a.u.) |
| TGTACCCAACGCCACGGCTACCCCAACGATGTTATCCCCTCGGAGTCACCTAGTGCAG | 3670 fluorescence intensity (a.u.) |
| GCCGCGACACCGCACCCCGCTCGCACTCGCACGTACGCGACGGAGTCACCTAGTGCAG | 3220 fluorescence intensity (a.u.) |
| GGCGTCGTCATGCGGAACGTCAGCAACCCGATCATCGTCGCGGAGTCACCTAGTGCAG | 6800 fluorescence intensity (a.u.) |
| CCTCACCTCACCTTACCTGAGAACACCACCCATTGCCGGACGGAGTCACCTAGTGCAG | 4580 fluorescence intensity (a.u.) |
| CGTTCGCAGCGGTGGCTGGCGTGCTGTGGTGGAGCATGTTCGGAGTCACCTAGTGCAG | 3380 fluorescence intensity (a.u.) |
| CTCCAGCATCGCCACCGGGTCCCCGTACGGGTTCTTCGGGCGGAGTCACCTAGTGCAG | 3620 fluorescence intensity (a.u.) |
| CTTTCACGCCGGCGAGCAATCCGACGCGGCAAAATCGAATCGGAGTCACCTAGTGCAG | 4850 fluorescence intensity (a.u.) |
| TCACTGTAGGTCTCTTGTGTTGACATCGAGTTCAAATTACCGGAGTCACCTAGTGCAG | 7090 fluorescence intensity (a.u.) |
| GGAACTGGTCGTGGATTAGCCTTCTCCAACATAGGGGTGGCGGAGTCACCTAGTGCAG | 33000 fluorescence intensity (a.u.) |
| GCCGATCAGCAGGTGCTGACTCCGCGCGGGGACGAATCCGCGGAGTCACCTAGTGCAG | 7890 fluorescence intensity (a.u.) |
| ACGATATGACGGAAAAGTTGGAAGTTTGTGTGTAGAAAAGCGGAGTCACCTAGTGCAG | 3140 fluorescence intensity (a.u.) |
| ATTATACATTTGATCAATTATTATACACTGGTTCTCAAAACGGAGTCACCTAGTGCAG | 20300 fluorescence intensity (a.u.) |

No new results follow: entries from further up.

| Sequence | binding signal |
| --- | --- |
| CGGAATGTCTCCGCGGAAGATGCCCAAGGAATCGCCTGGCCGGAGTCACCTAGTGCAG | 39500 fluorescence intensity (a.u.) |
| TGAGGCTGACGCGTGGGCCCTCCCTCGTGTGCGTGTTCTGCGGAGTCACCTAGTGCAG | 5800 fluorescence intensity (a.u.) |
